Test results published in patent publication US20240368302A1 (NANOMAB TECHNOLOGY, published 2024).
Numbering of substitutions follows the chain as printed. Results are given in words; binding and its absence hold for the method and conditions named. Some entries that bind do so weakly or less than the wild type.

B1: MY1530-6-1 (VHH)
VHH: QVQLQESGGGSVQAGGSLRLSCAASGFPYSSYSMGWFRQAPGKEREGVAAIYTGGGSTYYAGSVKGRFTISQEHATNTLYLQMNSLKPEDTAMYYCAANMVDNGVISGIQALGVRYYNYWGQGTQVTVSS
notes: Expressed in E. coli WK6 from vector pMECS, purified on a nickel column; also called MY1530-6-1 VHH; anti-TROP2 single domain antibody
B2: MY1530-1-20 (VHH)
VHH: QVQLQESGGGSVLAGGSLRLSCTVSGSFVSSRSMAWFRQTPGKEREGVAAISQYGDPKYAGSVKGRFTMSRDNAKNTLLLQMNSLKPEDTAIYYCAAGEAWELATLSRSDYIYWGQGTQVTVSS
notes: Expressed in E. coli WK6 from vector pMECS, purified on a nickel column; also called MY1530-1-20 VHH; anti-TROP2 single domain antibody
B3: MY1530-4-28 (VHH)
VHH: QVQLQESGGGSVQAGGSLRLSCAASGFSVSTTWMHWVRQAPGKGLEWVSRIAINDHTFYAESVKGRFTMSTDNAKNTVYLQMTSLKPEDTAVYYCSPYSDYRIRGQGTQVTVSS
notes: Expressed in E. coli WK6 from vector pMECS, purified on a nickel column; also called MY1530-4-28 VHH; anti-TROP2 single domain antibody
B4: MY1530-5-17 (VHH)
VHH: QVQLQESGGGSVQPGGSLRLSCVVSGYTVSSVCMAWFRQAPGMERELVAGFYHSGGTYYGDSVKGRFTASQDNAKNTLYLQMNSLKPEDTATYYCARARYPSSACGTSPSNYNIWGQGTQVTVSS
notes: Expressed in E. coli WK6 from vector pMECS, purified on a nickel column; also called MY1530-5-17 VHH; anti-TROP2 single domain antibody
B5: MY1530-5-54 (VHH)
VHH: B4 VHH with V24A, V29A, M43K, F51Y
notes: Expressed in E. coli WK6 from vector pMECS, purified on a nickel column; also called MY1530-5-54 VHH; anti-TROP2 single domain antibody
B6: MY1530-4-22 (VHH)
VHH: B4 VHH with P14A, R19K
notes: Expressed in E. coli WK6 from vector pMECS, purified on a nickel column; also called MY1530-4-22 VHH; anti-TROP2 single domain antibody
B7: MY1530-1-26 (VHH)
VHH: QVQLQESGGGSVQAGGSLRLSCVVSGYTTTRYSMAWFRQAPGKEREGVAGIDTDVLTTYKPSVEGRFTISRDSAKRTLYLQMNSLKPEDTAMYYCATGTGNFLALDPVWYNTWGQGTQVTVSS
notes: Expressed in E. coli WK6 from vector pMECS, purified on a nickel column; also called MY1530-1-26 VHH; anti-TROP2 single domain antibody
B8: MY1530-2-53 (VHH)
VHH: QVQLQESGGGSVQAGGSLRLSCAVSGLTSSTTCMGWFRQAPGKEREGVAVIRSSGETTAADSVKGRFTISRDNAKNTLSLQMTSLKPEDTAMYYCAAAWPYSGCLLPLSSGDFTYWGQGTQVTVSS
notes: Expressed in E. coli WK6 from vector pMECS, purified on a nickel column; also called MY1530-2-53 VHH; anti-TROP2 single domain antibody

biological target: rhesus monkey TROP2-Fc antigen protein (rhesus monkey); experiment: ELISA, coated rhesus monkey TROP2-Fc

binding, binds:
B1
B2
B3
B4
B5
B6
B7
B8
